In PMC8417450:
These are yes or no findings as the source states them, for the method shown. Binding seen in cells or lysates may run through a third protein. Some entries that bind do so weakly or less than the wild type.

Target: Human mature CDNF BiFC fusions (VN-CDNF and CDNF-VC) (human) (UniProt Q49AH0)
Experiment: split reporter; Venus bimolecular fluorescence complementation in living HEK 293 cells, equimolar plasmids, 48 h after transfection, epifluorescence microscopy

binding: binds
Substance: Human mature CDNF BiFC fusions (VN-CDNF and CDNF-VC) (from UniProt Q49AH0 25-187)
